Where a name gives a salt, the structure may show the parent alone. Some of the results follow. Repeats in this data set agree poorly, so a single value says little.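 The human kidney-derived cells carry a stably integrated construct of eight TEAD-binding elements driving luciferase, read by luminescence in a drug-repurposing library screen. A compound counts as a hit when its signal is more than five robust Z scores above the plate mean.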
Test system: HEK293A TEAD-LUC reporter
Assay: TEAD-luciferase reporter activity (YAP activation), robust Z score vs plate; higher = stronger YAP/TEAD activation
Conditions: 24 h

Structure (SMILES)	TEAD-luciferase reporter activity (compound concentration: 200 nM)	TEAD-luciferase reporter activity (compound concentration: 2 uM)	TEAD-luciferase reporter activity (compound concentration: 10 uM)
CCCCCCCCCCCC(=O)NCCc1c[nH]c2ccc(OC)cc12	inactive: -0.0466	inactive: 1.28	inactive: 2.38
CC(C)(C)C(=O)CN1C(=O)[C@H](NC(=O)Nc2cccc(C(=O)O)c2)CN(C2CCCCC2)c2ccccc21	inactive: 4.86	inactive: -0.637	inactive: -0.00217
O=C(Cc1ccc(-c2ccccc2)cc1)Nc1ccccn1 [difenpyramide]	inactive: 0.936	inactive: -0.0438	inactive: -1.27
N#CCC1(n2cc(-c3ncnc4[nH]ccc34)cn2)CN(C2CCN(C(=O)c3ccnc(C(F)(F)F)c3F)CC2)C1 [Itacitinib]	inactive: -0.329	inactive: -0.672	inactive: -0.412
O=C1NC(c2ccccc2)(c2ccccc2)C(=O)N1COP(=O)([O-])[O-] [fosphenytoin sodium]	inactive: -1.46	inactive: 0.225	inactive: -0.39
Cc1nc2cnccc2n1-c1ccc(OCc2cccc(/C=C/c3nc4cc(F)ccc4s3)c2)cc1	inactive: -1.03	inactive: 0.191	active: 9.63
CC(C)(C(=O)NCC(F)(F)C(F)(F)F)C(=O)N[C@@H]1C(=O)Nc2ccccc2-c2ccccc21	inactive: -0.327	inactive: -0.287	inactive: 0.242
CC(C)(C)c1ccc(CN(Cc2cccc(OCC(=O)O)c2)S(=O)(=O)c2cccnc2)cc1	inactive: -1.22	inactive: -1.52	inactive: 0.0142
CN1N=C2CCN(C(=O)[C@H](COCc3ccccc3)NC(=O)C(C)(C)N)CC2(Cc2ccccc2)C1=O (some centres not stated)	inactive: -0.758	inactive: 0.0613	inactive: 0.106
Cn1nccc1Nc1nccc(-c2ccn([C@H](CO)c3ccc(Cl)c(F)c3)c(=O)c2)n1	inactive: -0.37	inactive: -2	inactive: -2.57
O=C(O)CNC(=O)c1ncc(-c2cccc(Cl)c2)cc1O [Vadadustat]	inactive: 0.296	inactive: -0.474	inactive: -0.97
CN(C)c1nc2ccc(-n3cnc4cc(-c5ccc(Cl)cc5)sc4c3=O)cc2n1C	inactive: -0.403	inactive: -1.57	inactive: 1.08
CC(=O)N1C[C@H](O)C[C@H]1C(=O)N[C@@H](CCCNC(=N)N)C(=O)c1nc2ccccc2s1	inactive: 0.766	inactive: -0.581	inactive: -1.16
CC(=O)Nc1ccc(CN(C)Cc2ccc(-c3ccccc3)cc2)cc1	inactive: 0.446		inactive: -0.7
COc1cc(S(C)(=O)=O)ccc1Nc1nc2cc(-c3ccc(NC(=O)C(C)c4ccc(F)cc4)cc3)ccn2n1 (configuration not stated)	inactive: -1.08	inactive: 1.35	active: 9.18
O=C(O)CCCN1CCC[C@@H]1COc1ccc(Oc2ccc(Cl)cc2)cc1	inactive: 1.86	inactive: 0.178	inactive: 1.23
CC12CCC(C(=O)N(CCCCN3CCN(c4ccccn4)CC3)C1=O)C2(C)C (configuration not stated) [Piricapiron]	inactive: -0.613	inactive: -1.56	inactive: 2.15
COc1ccc(OC2CN(Cc3ccccc3)C2)cc1	inactive: -0.476		inactive: 1.59
N=C(N)c1ccc(O)c(CN2CCC(NS(=O)(=O)c3ccc(-c4cccnc4)s3)C2=O)c1 (configuration not stated)	inactive: -0.945	inactive: -0.134	inactive: 1.19

Structure (SMILES)	TEAD-luciferase reporter activity (compound concentration: 200 nM)	TEAD-luciferase reporter activity (compound concentration: 2 uM)	TEAD-luciferase reporter activity (compound concentration: 10 uM)
CCCCCCNC(=O)NC(=N)NCCCN1CCN(CCCNC(=N)NC(=O)NCCCCCC)CC1 [Ipexidine]	inactive: -0.587		inactive: 0.635
CCCCCCNC(=O)NC(=N)NCCCN1CCN(CCCNC(=N)NC(=O)NCCCCCC)CC1		inactive: -0.882	
Cc1cc2ncc(C(=O)NC3CCCCC3C)cn2n1 (configuration not stated)	inactive: -0.638		inactive: -1.01
[Li+] [Lithium citrate]	inactive: -0.656	inactive: 0.0248	inactive: -0.094
COc1cc2c(CCNC(C)=O)c[nH]c2cc1Cl	inactive: -0.201	inactive: 1.61	inactive: 1.62
O=[N+]([O-])c1cn2c(n1)OC[C@@H](OCc1ccc(-c3ccc(OC(F)(F)F)cc3)nc1)C2	inactive: 1.15	inactive: 0.0529	inactive: 0.32
Fc1ccc(N2CCN(CCSc3nnc4ccccn34)CC2)c(F)c1	inactive: -2.92	inactive: 0.111	inactive: -0.291
CN(C)CCCOC1(Cc2ccccc2)CCCCCC1	inactive: 0.565	inactive: -0.153	inactive: 0.83
O=C(NCC1CC1)C1CN(c2ccccc2)C(=O)N1 (configuration not stated)	inactive: 4.79		inactive: 3.66
CC(=O)SCC(C)C(=O)Nc1cccc(C(=O)O)c1 (configuration not stated)	inactive: -1.58	inactive: -0.707	inactive: 0.131
C#CCOC[C@H]1CO[C@](Cn2ccnc2)(c2ccc(Cl)cc2Cl)O1 [Parconazole]	inactive: -1.55	inactive: 0.728	inactive: 0.844
Cc1cc(Nc2ncc(F)c(N[C@@H]3[C@H](C(N)=O)[C@H]4C=C[C@@H]3C4)n2)ccc1N1CCN(C)CC1	inactive: -0.00932	inactive: 0.761	inactive: 2.72
C/C=C/C1=C(C(=O)O)N2C(=O)[C@@H](NC(=O)/C(=N\O)c3csc(N)n3)[C@H]2SC1	inactive: -1.88	inactive: -0.0673	inactive: -0.575
CCCn1nc(-c2ccccc2)ccc1=O	inactive: 3.13	inactive: -2.29	active: 5.01
CC(=O)N1CCC2(CC1)CN(C(=O)CCCNC(N)=O)Cc1ccccc1O2	inactive: 0.0329		active: 77
CN(C(=O)C1CC1)C1CCc2ccccc21 (configuration not stated)	inactive: -1.42		inactive: 0.808
CCOc1ccc2nc(S(N)(=O)=O)sc2c1	inactive: -1.47	inactive: 1.35	inactive: 2.02
COCC(=O)Nc1c(I)c(C(=O)NCC(O)CO)c(I)c(C(=O)N(C)CC(O)CO)c1I (configuration not stated) [peptide analogues]		inactive: -0.779	
COCC(=O)Nc1c(I)c(C(=O)NCC(O)CO)c(I)c(C(=O)N(C)CC(O)CO)c1I (configuration not stated) [peptide analogues, ResCo]	inactive: -2.78		active: 5.21

A portion of the results above, for reference:
Structure (SMILES)	TEAD-luciferase reporter activity (compound concentration: 200 nM)	TEAD-luciferase reporter activity (compound concentration: 2 uM)	TEAD-luciferase reporter activity (compound concentration: 10 uM)
CCCCCCNC(=O)NC(=N)NCCCN1CCN(CCCNC(=N)NC(=O)NCCCCCC)CC1 [Ipexidine]	inactive: -0.587		inactive: 0.635
CCCCCCNC(=O)NC(=N)NCCCN1CCN(CCCNC(=N)NC(=O)NCCCCCC)CC1		inactive: -0.882	
Cc1cc2ncc(C(=O)NC3CCCCC3C)cn2n1 (configuration not stated)	inactive: -0.638		inactive: -1.01
[Li+] [Lithium citrate]	inactive: -0.656	inactive: 0.0248	inactive: -0.094
COc1cc2c(CCNC(C)=O)c[nH]c2cc1Cl	inactive: -0.201	inactive: 1.61	inactive: 1.62
O=[N+]([O-])c1cn2c(n1)OC[C@@H](OCc1ccc(-c3ccc(OC(F)(F)F)cc3)nc1)C2	inactive: 1.15	inactive: 0.0529	inactive: 0.32
Fc1ccc(N2CCN(CCSc3nnc4ccccn34)CC2)c(F)c1	inactive: -2.92	inactive: 0.111	inactive: -0.291
CN(C)CCCOC1(Cc2ccccc2)CCCCCC1	inactive: 0.565	inactive: -0.153	inactive: 0.83
